Our source for the binding values is patent US20060234378A1, “Molecular switch regulating neurogenesis” (The Salk Institute For Biological Studies, priority 2005, published 2006).

Sequences of proteins named here, by UniProt entry; tags and fusion partners are left off. Residues count along the entry.
UniProt Q6JHU9, residues 2-2442: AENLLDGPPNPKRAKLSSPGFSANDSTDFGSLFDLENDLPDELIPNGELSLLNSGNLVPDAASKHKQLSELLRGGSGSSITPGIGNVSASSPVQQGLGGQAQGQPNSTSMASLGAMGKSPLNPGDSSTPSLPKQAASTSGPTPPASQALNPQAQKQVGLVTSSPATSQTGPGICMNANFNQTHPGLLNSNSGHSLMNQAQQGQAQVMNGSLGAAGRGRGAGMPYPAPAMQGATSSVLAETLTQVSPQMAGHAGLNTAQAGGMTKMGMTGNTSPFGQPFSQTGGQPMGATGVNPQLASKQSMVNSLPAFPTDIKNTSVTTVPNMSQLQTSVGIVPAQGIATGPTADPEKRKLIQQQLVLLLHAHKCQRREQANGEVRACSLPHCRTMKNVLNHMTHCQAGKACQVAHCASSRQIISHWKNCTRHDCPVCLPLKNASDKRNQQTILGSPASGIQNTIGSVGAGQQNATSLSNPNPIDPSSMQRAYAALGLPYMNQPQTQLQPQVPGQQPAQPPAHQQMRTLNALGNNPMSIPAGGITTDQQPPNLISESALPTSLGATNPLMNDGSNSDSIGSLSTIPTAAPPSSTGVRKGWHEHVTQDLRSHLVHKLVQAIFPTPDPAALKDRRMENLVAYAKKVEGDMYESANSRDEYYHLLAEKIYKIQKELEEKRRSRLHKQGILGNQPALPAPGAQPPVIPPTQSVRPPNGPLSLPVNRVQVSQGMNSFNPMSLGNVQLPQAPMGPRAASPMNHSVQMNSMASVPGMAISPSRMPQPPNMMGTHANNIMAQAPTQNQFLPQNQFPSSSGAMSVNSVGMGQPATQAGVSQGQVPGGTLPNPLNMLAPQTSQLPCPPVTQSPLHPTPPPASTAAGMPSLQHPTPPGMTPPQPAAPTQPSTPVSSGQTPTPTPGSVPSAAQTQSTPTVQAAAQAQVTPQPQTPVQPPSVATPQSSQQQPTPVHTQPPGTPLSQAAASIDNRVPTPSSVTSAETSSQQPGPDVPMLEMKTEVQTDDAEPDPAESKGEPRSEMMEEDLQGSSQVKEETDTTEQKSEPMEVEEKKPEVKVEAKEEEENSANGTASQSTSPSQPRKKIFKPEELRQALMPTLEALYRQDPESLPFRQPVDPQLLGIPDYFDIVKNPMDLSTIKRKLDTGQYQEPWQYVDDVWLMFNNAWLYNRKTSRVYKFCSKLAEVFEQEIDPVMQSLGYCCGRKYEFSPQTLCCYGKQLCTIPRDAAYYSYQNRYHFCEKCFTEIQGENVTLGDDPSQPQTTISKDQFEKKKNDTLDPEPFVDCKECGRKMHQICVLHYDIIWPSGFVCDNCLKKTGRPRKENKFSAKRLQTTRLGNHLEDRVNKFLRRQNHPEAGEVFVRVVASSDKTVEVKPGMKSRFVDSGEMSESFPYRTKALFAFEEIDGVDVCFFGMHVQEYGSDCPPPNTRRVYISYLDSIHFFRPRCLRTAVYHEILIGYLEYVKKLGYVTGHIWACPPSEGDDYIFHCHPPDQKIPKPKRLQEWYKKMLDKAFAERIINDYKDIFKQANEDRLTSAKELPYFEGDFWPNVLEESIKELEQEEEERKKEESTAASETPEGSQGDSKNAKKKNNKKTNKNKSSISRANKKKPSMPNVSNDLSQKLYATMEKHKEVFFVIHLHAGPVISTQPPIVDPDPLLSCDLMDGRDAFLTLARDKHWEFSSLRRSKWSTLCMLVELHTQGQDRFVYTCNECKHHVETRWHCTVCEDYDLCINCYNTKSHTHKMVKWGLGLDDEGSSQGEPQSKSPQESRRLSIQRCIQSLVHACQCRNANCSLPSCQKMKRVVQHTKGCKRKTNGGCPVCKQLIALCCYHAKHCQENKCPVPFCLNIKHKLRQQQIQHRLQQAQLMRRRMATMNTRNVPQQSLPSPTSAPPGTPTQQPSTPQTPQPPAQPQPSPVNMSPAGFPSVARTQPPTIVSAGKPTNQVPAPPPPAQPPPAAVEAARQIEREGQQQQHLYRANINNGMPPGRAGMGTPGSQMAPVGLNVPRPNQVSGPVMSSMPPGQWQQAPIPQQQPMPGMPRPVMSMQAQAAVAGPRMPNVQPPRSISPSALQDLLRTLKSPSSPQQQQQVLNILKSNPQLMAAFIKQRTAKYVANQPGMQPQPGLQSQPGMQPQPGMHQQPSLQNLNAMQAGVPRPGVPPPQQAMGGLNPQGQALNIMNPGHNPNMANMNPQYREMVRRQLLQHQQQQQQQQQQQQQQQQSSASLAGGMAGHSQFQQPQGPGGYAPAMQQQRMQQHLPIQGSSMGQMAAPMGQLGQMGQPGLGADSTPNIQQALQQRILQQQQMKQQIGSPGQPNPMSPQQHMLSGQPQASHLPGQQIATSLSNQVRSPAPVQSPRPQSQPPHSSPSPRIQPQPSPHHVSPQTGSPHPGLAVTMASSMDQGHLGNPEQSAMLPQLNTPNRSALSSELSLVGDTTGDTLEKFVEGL
UniProt Q9QXN1: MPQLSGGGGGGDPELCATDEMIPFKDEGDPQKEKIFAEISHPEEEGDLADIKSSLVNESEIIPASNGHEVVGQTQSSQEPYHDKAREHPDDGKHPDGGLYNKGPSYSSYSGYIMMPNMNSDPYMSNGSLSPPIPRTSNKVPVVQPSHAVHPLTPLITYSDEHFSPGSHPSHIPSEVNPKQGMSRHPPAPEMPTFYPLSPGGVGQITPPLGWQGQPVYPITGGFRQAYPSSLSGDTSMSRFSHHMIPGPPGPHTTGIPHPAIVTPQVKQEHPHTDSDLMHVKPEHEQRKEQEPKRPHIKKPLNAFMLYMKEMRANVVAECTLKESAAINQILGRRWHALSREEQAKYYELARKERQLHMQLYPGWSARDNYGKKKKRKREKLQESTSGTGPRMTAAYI

These are yes or no findings as the source states them, for the method shown. In cells and extracts the contact can be indirect. Some binding calls cover weakened binding; strength is not graded here.

Test [1] concerns the target histone deacetylase-1 (rat) (UniProt Q4QQW4). In words: co-immunoprecipitation from nuclear extracts of neural stem cells, protein G beads, Western blot. In general terms: Immunoblotting shows a protein as a band on a membrane.
The target of test [2] is CREB-binding protein (rat) (UniProt Q6JHU9). The experiment in a line: co-immunoprecipitation from nuclear extracts of differentiating cells, protein G beads, Western blot.
In test [3] the target is LEF1 (rat) (UniProt Q9QXN1). The description is as above.

Consider “C-terminal-binding protein-1 (from UniProt Q9Z2F5 1-430)”, for which, in test [1], the binding result is “binds”.

B1: β-catenin (protein, rat, UniProt Q9WU82 2-781, looked up)
chain: ATQADLMELDMAMEPDRKAAVSHWQQQSYLDSGIHSGATTTAPSLSGKGNPEEEDVDTSQVLYEWEQGFSQSFTQEQVADIDGQYAMTRAQRVRAAMFPETLDEGMQIPSTQFDAAHPTNVQRLAEPSQMLKHAVVNLINYQDDAELATRAIPELTKLLNDEDQVVVNKAAVMVHQLSKKEASRHAIMRSPQMVSAIVRTMQNTNDVETARCTAGTLHNLSHHREGLLAIFKSGGIPALVKMLGSPVDSVLFYAITTLHNLLLHQEGAKMAVRLAGGLQKMVALLNKTNVKFLAITTDCLQILAYGNQESKLIILASGGPQALVNIMRTYTYEKLLWTTSRVLKVLSVCSSNKPAIVEAGGMQALGPHLTDPSQRLVQNCLWTLRNLSDAATKQEGMEGLLGTLVQLLGSDDINVVTCAAGILSNLTCNNYKNKMMVCQVGGIEALVRTVLRAGDREDITEPAICALRHLTSRHQEAEMAQNAVRLHYGLPVVVKLLHPPSHWPLIKATVGLIRNLALCPANHAPLREQGAIPRLVQLLVRAHQDTQRRTSMGGTQQQFVEGVRMEEIVEGCTGALHILARDVHNRIVIRGLNTIPLFVQLLYSPIENIQRVAAGVLCELAQDKEAAEAIEAEGATAPLTELLHSRNEGVATYAAAVLFRMSEDKPQDYKKRLSVELTSSLFRTEPMAWNETADLGLDIGAQGEALGYRQDDPSYRSFHSGGYGQDALGMDPMMEHEMGGHHPGADYPVDGLPDLGHAQDLMDGLPPGDSNQLAWFDTDL
For B1, the binding entry in test [2] and in test [3] was “binds” each time.
